# Experimental data from article doi:10.1101/2023.04.18.537143.
# Amino acid sequences for entries named in this document (tags omitted). Residues count along the entry.
# UniProt Q16602, residues 23-461: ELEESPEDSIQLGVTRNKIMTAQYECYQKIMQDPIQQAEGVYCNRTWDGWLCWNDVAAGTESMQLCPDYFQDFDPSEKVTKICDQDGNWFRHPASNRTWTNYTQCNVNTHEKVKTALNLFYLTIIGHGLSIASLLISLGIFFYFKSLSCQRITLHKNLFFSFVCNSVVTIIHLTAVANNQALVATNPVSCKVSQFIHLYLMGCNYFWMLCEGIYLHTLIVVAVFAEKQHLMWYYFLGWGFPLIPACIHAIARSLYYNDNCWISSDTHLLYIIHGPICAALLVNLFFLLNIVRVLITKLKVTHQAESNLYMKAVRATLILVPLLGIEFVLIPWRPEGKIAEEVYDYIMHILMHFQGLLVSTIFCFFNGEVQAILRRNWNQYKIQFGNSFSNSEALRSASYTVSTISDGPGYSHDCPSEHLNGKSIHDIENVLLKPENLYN
# UniProt Q13557: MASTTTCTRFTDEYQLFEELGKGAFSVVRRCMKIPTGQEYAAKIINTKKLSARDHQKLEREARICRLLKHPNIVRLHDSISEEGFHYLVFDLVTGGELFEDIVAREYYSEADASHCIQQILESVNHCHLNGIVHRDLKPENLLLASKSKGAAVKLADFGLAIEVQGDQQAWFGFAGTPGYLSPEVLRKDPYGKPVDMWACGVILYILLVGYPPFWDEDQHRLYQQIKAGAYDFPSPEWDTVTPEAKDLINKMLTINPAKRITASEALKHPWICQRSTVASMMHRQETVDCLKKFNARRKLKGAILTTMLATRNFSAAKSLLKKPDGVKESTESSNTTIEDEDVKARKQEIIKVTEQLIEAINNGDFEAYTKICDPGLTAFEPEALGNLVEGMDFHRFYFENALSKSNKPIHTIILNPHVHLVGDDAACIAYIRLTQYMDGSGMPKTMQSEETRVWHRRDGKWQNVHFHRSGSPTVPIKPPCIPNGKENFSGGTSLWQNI
# UniProt Q9Y5S2: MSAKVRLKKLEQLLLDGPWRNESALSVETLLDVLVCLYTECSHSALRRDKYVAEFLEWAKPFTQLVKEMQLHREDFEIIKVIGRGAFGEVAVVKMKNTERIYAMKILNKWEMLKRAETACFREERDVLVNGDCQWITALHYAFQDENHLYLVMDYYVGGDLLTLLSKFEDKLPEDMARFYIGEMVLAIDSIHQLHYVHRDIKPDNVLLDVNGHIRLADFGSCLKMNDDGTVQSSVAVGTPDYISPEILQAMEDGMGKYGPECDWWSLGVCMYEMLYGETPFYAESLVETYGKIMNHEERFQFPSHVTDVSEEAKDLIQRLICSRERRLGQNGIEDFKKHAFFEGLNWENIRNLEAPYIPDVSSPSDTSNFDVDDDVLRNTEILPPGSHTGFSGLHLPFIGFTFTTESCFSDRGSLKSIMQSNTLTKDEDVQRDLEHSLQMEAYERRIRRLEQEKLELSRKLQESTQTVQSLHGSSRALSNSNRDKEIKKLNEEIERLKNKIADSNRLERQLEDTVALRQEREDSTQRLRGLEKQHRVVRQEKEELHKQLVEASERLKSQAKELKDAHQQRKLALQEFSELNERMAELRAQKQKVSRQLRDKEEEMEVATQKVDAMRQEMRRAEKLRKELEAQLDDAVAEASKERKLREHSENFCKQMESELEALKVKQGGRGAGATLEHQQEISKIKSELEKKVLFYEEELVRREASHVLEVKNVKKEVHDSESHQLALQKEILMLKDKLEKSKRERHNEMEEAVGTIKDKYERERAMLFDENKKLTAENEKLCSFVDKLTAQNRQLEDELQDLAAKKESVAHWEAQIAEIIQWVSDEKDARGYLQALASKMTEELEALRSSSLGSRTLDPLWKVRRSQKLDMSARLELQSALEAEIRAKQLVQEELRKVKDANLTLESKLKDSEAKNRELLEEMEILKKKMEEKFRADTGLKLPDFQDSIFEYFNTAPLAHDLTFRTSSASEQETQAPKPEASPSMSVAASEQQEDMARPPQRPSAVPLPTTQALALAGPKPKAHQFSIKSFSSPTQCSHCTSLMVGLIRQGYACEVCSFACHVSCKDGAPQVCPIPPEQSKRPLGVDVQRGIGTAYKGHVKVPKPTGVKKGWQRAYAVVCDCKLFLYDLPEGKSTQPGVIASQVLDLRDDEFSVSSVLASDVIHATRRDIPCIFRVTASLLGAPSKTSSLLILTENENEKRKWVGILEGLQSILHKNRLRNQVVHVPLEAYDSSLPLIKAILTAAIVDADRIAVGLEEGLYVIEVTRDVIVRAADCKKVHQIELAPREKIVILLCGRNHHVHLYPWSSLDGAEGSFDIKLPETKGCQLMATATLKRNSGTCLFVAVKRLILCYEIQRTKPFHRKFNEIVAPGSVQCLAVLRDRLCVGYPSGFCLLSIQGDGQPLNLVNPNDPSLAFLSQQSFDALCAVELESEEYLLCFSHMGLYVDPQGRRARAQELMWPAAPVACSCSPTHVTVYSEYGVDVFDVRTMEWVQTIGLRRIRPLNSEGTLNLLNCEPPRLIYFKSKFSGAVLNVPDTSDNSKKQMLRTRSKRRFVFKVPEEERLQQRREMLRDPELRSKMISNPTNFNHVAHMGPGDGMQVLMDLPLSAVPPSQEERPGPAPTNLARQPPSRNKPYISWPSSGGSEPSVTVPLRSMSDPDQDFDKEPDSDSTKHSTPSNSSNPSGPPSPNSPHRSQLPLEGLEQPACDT
# Results are given in words; binding and its absence hold for the method and conditions named. Binding seen in cells or lysates may run through a third protein. Some results given as binding are weak or reduced against the parent protein; the word gives no strength.
# Target: calcitonin receptor-like receptor (human (endogenous in HDLEC)) (UniProt Q16602)
# Assay: proximity ligation
row,Molecule,binding
1,calcium/calmodulin dependent protein kinase II delta (from UniProt Q13557 1-499) (enzyme),binds
2,"aconitase 1 (enzyme, UniProt P21399 1-889) MSNPFAHLAEPLDPVQPGKKFFNLNKLEDSRYGRLPFSIRVLLEAAIRNCDEFLVKKQDIENILHWNVTQHKNIEVPFKPARVILQDFTGVPAVVDFAAMRDAVKKLGGDPEKINPVCPADLVIDHSIQVDFNRRADSLQKNQDLEFERNRERFEFLKWGSQAFHNMRIIPPGSGIIHQVNLEYLARVVFDQDGYYYPDSLVGTDSHTTMIDGLGILGWGVGGIEAEAVMLGQPISMVLPQVIGYRLMGKPHPLVTSTDIVLTITKHLRQVGVVGKFVEFFGPGVAQLSIADRATIANMCPEYGATAAFFPVDEVSITYLVQTGRDEEKLKYIKKYLQAVGMFRDFNDPSQDPDFTQVVELDLKTVVPCCSGPKRPQDKVAVSDMKKDFESCLGAKQGFKGFQVAPEHHNDHKTFIYDNTEFTLAHGSVVIAAITSCTNTSNPSVMLGAGLLAKKAVDAGLNVMPYIKTSLSPGSGVVTYYLQESGVMPYLSQLGFDVVGYGCMTCIGNSGPLPEPVVEAITQGDLVAVGVLSGNRNFEGRVHPNTRANYLASPPLVIAYAIAGTIRIDFEKEPLGVNAKGQQVFLKDIWPTRDEIQAVERQYVIPGMFKEVYQKIETVNESWNALATPSDKLFFWNSKSTYIKSPPFFENLTLDLQPPKSIVDAYVLLNLGDSVTTDHISPAGNIARNSPAARYLTNRGLTPREFNSYGSRRGNDAVMARGTFANIRLLNRFLNKQAPQTIHLPSGEILDVFDAAERYQQAGLPLIVLAGKEYGAGSSRDWAAKGPFLLGIKAVLAESYERIHRSNLVGMGVIPLEYLPGENADALGLTGQERYTIIIPENLKPQMKVQVKLDTGKTFQAVMRFDTDVELTYFLNGGILNYMIRKMAK",binds
3,"nucleoporin 93 (protein, UniProt Q8N1F7 1-819) MDTEGFGELLQQAEQLAAETEGISELPHVERNLQEIQQAGERLRSRTLTRTSQETADVKASVLLGSRGLDISHISQRLESLSAATTFEPLEPVKDTDIQGFLKNEKDNALLSAIEESRKRTFGMAEEYHRESMLVEWEQVKQRILHTLLASGEDALDFTQESEPSYISDVGPPGRSSLDNIEMAYARQIYIYNEKIVNGHLQPNLVDLCASVAELDDKSISDMWTMVKQMTDVLLTPATDALKNRSSVEVRMEFVRQALAYLEQSYKNYTLVTVFGNLHQAQLGGVPGTYQLVRSFLNIKLPAPLPGLQDGEVEGHPVWALIYYCMRCGDLLAASQVVNRAQHQLGEFKTWFQEYMNSKDRRLSPATENKLRLHYRRALRNNTDPYKRAVYCIIGRCDVTDNQSEVADKTEDYLWLKLNQVCFDDDGTSSPQDRLTLSQFQKQLLEDYGESHFTVNQQPFLYFQVLFLTAQFEAAVAFLFRMERLRCHAVHVALVLFELKLLLKSSGQSAQLLSHEPGDPPCLRRLNFVRLLMLYTRKFESTDPREALQYFYFLRDEKDSQGENMFLRCVSELVIESREFDMILGKLENDGSRKPGVIDKFTSDTKPIINKVASVAENKGLFEEAAKLYDLAKNADKVLELMNKLLSPVVPQISAPQSNKERLKNMALSIAERYRAQGISANKFVDSTFYLLLDLITFFDEYHSGHIDRAFDIIERLKLVPLNQESVEERVAAFRNFSDEIRHNLSEVLLATMNILFTQFKRLKGTSPSSSSRPQRVIEDRDSQLRSQARTLITFAGMIPYRTSGDTNARLVQMEVLMN",binds

# Results, then the molecule that gave them:
row,binding,Molecule
1,binds,serine/threonine-protein kinase MRCK beta (from UniProt Q9Y5S2 1-1711) (enzyme)
2,binds,valosin containing protein (from UniProt P55072 1-806) (enzyme)
